Laboratory results: publication PMC12513491
No constants are given. Whether binding was seen depends on the method and setting. Binding can be weak; no strength is given. Sequences can lack the tags named with a protein.

Protein sequences, listed by entry. Tags and fused reporters are not part of them. Lines headed by an entry give the natural chain unless they say otherwise; changes in a name come on top.
UniProt P98161: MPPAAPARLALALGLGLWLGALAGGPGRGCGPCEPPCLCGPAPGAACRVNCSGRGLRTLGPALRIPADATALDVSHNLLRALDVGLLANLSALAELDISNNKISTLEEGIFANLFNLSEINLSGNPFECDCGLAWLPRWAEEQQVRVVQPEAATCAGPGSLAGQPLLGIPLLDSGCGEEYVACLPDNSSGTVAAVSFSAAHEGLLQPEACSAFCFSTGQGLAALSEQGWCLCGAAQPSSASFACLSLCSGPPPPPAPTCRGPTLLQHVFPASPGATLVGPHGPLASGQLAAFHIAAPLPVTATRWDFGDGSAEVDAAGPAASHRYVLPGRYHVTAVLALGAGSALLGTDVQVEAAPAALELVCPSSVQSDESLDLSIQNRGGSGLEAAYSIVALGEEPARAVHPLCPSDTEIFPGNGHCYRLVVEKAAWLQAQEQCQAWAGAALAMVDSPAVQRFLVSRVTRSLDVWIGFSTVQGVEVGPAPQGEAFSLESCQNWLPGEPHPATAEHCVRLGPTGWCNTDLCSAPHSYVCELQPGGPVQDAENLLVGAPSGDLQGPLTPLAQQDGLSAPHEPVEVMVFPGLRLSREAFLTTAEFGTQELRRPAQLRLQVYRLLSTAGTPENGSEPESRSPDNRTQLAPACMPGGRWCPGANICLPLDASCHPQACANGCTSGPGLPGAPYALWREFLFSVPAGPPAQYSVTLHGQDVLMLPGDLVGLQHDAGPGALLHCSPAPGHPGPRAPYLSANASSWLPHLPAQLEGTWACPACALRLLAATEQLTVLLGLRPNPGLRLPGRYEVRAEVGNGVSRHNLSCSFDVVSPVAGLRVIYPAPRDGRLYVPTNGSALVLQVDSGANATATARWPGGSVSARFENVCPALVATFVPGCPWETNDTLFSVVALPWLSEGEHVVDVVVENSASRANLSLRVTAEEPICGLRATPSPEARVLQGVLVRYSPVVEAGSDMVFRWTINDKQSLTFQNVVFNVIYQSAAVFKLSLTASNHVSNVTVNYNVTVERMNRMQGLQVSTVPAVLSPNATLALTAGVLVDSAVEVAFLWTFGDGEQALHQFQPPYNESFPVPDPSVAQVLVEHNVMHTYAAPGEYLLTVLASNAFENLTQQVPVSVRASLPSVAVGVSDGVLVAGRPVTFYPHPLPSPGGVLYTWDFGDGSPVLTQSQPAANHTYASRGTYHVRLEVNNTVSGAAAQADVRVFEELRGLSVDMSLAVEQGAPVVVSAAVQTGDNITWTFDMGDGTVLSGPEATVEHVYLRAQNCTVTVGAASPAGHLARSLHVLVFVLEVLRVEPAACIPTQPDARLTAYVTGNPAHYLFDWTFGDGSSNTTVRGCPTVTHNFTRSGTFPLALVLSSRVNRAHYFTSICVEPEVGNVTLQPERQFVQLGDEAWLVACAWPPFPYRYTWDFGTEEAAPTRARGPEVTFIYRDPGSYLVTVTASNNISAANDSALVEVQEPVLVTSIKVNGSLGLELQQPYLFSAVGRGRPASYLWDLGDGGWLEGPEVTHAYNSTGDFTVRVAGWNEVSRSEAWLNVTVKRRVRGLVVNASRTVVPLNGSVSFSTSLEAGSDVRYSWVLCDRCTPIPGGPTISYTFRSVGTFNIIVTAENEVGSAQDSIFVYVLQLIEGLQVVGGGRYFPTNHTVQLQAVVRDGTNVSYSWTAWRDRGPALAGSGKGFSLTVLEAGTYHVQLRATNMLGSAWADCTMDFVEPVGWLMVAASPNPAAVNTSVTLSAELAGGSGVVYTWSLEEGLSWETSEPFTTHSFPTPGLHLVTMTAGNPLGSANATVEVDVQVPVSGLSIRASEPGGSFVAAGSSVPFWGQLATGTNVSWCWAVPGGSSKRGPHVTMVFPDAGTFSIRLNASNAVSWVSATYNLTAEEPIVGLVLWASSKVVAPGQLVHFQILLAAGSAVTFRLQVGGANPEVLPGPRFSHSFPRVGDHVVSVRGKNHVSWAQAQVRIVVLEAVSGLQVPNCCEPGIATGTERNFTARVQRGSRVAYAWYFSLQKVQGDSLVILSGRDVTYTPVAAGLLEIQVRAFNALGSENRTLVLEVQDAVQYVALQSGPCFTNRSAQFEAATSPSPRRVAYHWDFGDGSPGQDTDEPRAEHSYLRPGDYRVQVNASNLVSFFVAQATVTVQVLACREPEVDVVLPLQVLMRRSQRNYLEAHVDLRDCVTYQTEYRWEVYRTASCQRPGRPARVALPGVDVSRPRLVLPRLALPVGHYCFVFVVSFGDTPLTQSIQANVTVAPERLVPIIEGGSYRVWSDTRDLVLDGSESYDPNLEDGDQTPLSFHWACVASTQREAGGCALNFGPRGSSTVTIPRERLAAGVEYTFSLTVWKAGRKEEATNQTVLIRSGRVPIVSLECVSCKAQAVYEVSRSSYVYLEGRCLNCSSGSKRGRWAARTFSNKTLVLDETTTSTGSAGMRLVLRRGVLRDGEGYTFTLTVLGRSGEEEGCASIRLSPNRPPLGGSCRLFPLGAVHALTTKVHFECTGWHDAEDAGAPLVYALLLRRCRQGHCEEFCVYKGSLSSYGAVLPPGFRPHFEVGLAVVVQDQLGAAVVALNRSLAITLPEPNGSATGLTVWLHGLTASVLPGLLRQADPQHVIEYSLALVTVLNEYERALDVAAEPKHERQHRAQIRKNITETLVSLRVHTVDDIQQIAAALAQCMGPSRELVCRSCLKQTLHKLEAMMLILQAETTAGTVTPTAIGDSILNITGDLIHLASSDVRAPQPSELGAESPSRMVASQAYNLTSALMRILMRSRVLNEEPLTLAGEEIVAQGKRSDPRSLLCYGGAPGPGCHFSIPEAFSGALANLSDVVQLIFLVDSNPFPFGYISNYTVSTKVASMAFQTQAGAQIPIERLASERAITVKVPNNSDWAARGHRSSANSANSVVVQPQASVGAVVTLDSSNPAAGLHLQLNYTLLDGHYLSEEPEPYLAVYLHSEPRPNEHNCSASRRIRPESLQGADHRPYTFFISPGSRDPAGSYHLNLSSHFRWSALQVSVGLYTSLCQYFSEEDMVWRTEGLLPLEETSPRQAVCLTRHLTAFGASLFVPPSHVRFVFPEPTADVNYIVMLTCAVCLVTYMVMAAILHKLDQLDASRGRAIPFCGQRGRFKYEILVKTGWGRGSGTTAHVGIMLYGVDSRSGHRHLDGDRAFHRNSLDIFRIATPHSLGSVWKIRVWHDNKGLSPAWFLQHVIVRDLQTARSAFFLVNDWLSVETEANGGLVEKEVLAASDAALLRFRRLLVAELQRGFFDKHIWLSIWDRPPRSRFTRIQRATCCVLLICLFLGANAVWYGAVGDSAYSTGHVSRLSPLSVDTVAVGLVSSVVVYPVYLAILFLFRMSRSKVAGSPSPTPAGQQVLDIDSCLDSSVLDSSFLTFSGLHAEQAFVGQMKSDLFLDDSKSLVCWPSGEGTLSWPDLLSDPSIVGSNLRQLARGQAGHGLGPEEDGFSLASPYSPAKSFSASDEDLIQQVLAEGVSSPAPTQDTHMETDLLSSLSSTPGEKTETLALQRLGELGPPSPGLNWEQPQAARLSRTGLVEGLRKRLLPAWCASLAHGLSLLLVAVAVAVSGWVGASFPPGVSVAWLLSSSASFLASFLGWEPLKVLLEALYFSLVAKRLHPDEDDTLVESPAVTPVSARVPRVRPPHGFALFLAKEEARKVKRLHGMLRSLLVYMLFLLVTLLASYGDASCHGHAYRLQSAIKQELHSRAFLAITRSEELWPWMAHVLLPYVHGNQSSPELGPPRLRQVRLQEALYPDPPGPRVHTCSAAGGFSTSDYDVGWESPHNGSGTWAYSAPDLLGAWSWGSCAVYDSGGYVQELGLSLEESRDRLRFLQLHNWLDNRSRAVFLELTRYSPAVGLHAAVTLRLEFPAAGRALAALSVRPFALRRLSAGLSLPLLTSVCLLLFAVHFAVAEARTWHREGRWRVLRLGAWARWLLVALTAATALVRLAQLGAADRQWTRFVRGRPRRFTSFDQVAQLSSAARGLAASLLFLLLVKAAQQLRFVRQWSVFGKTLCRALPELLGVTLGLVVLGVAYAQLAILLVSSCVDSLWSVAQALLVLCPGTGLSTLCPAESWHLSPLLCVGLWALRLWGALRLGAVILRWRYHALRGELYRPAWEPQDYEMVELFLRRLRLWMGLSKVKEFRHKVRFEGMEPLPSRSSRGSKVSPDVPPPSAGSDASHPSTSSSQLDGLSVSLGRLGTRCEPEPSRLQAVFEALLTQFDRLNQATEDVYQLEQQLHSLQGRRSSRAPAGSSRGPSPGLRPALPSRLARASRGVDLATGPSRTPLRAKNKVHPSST

Biological target: GST-LRR (PC1 leucine-rich repeat fusion protein) (human) (UniProt P98161)
Test: pull-down; mixtures of purified GFP-Wnt9B with GST-LRR or GST alone, pulled down using GST-sepharose beads; probed with anti-GFP or anti-GST antibodies; both purified

- binding: binds
B1: purified GFP-Wnt9B (ligand, UniProt O14905 23-357)
chain: SYFGLTGREVLTPFPGLGTAAAPAQGGAHLKQCDLLKLSRRQKQLCRREPGLAETLRDAAHLGLLECQFQFRHERWNCSLEGRMGLLKRGFKETAFLYAVSSAALTHTLARACSAGRMERCTCDDSPGLESRQAWQWGVCGDNLKYSTKFLSNFLGSKRGNKDLRARADAHNTHVGIKAVKSGLRTTCKCHGVSGSCAVRTCWKQLSPFRETGQVLKLRYDSAVKVSSATNEALGRLELWAPARQGSLTKGLAPRSGDLVYMEDSPSFCRPSKYSPGTAGRVCSREASCSSLCCGRGYDTQSRLVAFSCHCQVQWCCYVECQQCVQEELVYTCKH
